Experimental data taken from the supplement of paper PMC12067093, “Discovery and optimisation of a covalent ligand for TRIM25 and its application to targeted protein ubiquitination” (Chemical Science, 2025).
This is one part of the list.

Compound: Cc1cc(ccc1-c1ccccc1)C(=O)N1CCCN(CC1)C(=O)CCl [compound 10]
Assay: probe-labelled cysteine peptide fold change vs DMSO (competition) (log2 fold change); higher = less target engagement (more negative = stronger competition)
Details: THP-1, incubation time: 4 h
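Further: competitive profiling in live THP-1 cells: cysteine peptides tagged with an iodoacetamide desthiobiotin (IA-DTB) probe, intensity after compound treatment relative to DMSO-treated cells.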

Target	probe-labelled cysteine peptide fold change (10 µM)	probe-labelled cysteine peptide fold change (50 µM)
GLIPR1_P48060_156_VGCAVQFCPK (UniProt P48060)	0.0182	-0.139
GOLGA3_Q08378_477_QSCWDLER (UniProt Q08378)	0.504	0.441
GPI_P06744_404_MIPCDFLIPVQTQHPIR (UniProt P06744)	-0.0103	0.2
GMFB_P60983_8_SESLVVCDVAEDLVEK (UniProt P60983)	0.00338	-0.022
GNPNAT1_Q96EK6_157_ITLECLPQNVGFYK (UniProt Q96EK6)	-0.166	0.152
GOPC_Q9HD26_81_MTSLSSCFAQLCHK (UniProt Q9HD26)	0.156	0.136
GOLGA4_Q13439_1729_NVAAYTEQEEADSQGCVQK (UniProt Q13439)	-0.0132	0.0434
GPD2_P43304_546_EYACTAVDMISR (UniProt P43304)	0.0683	0.188
GOLGB1_Q14789_2664_RIAELEEELVCVQK (UniProt Q14789)	0.146	0.236
GOLGA3_Q08378_391_DSICSSVSLESSAAETQEEMLQVLK (UniProt Q08378)	-0.235	-0.0566
GLRX3_O76003_146_LTHAAPCMLFMK (UniProt O76003)	-0.141	-0.29
GLIPR1_P48060_192_GATCSACPNNDK (UniProt P48060)	0.087	-0.0726
GOLPH3_Q9H4A6_280_QLLDLDPEVECLK (UniProt Q9H4A6)	-0.195	0.0853
GMDS_O60547_237_IYLGQLECFSLGNLDAK (UniProt O60547)	0.00025	-0.0367
GNAI3_P08754_139_DGGVQACFSR (UniProt P08754)	-0.0878	0.0749
GNB1_P62873_271_ADQELMTYSHDNIICGITSVSFSKSGR (UniProt P62873)	0.19	-0.0474
GNB1L_Q9BYB4_5_TAPCPPPPPDPQFVLR (UniProt Q9BYB4)	0.181	0.239
GOLGA4_Q13439_1269_TCTVSELEAQLR (UniProt Q13439)	-0.0958	-0.093
GOSR1_O95249_34_LCTSYSHSSTR (UniProt O95249)	0.123	0.0874
GLCCI1_Q86VQ1_207_ATQTPSCWAEEGAEKR (UniProt Q86VQ1)	-0.296	-0.564
GLE1_Q53GS7_287_GNQLCSLISGIIR (UniProt Q53GS7)	0.0931	0.0539

Target	probe-labelled cysteine peptide fold change (10 µM)	probe-labelled cysteine peptide fold change (50 µM)
GOLGA2_Q08379_984_ERPGLGSNPCIPFFYR (UniProt Q08379)	-0.149	-0.0471
GOLGB1_Q14789_2279_VCDTLQGENK (UniProt Q14789)	0.0962	-0.0317
GMPS_P49915_554_MCHNVNR (UniProt P49915)	-0.0487	0.0835
GLG1_Q92896_190_ECADEPVGK (UniProt Q92896)	-0.0619	0.229
GOLGB1_Q14789_3144_SDPEELREPQQSFSEAQQQLCNTR (UniProt Q14789)	0.123	-0.159
GLG1_Q92896_1092_QMSCLMEALEDK (UniProt Q92896)	-0.0727	-0.0185
GNPNAT1_Q96EK6_113_FIHSCAK (UniProt Q96EK6)	0.11	0.018
GMPR2_Q9P2T1_186_VGIGPGSVCTTR (UniProt Q9P2T1)	0.0463	-0.139
GNB1_P62873_271_ADQELMTYSHDNIICGITSVSFSK (UniProt P62873)	0.196	0.00135
GNA13_Q14344_318_DYFLEFEGDPHCLR (UniProt Q14344)	0.243	0.0399
GNB2_P62879_204_TFVSGACDASIK (UniProt P62879)	0.0688	0.0376
GLUL_P15104_99_LVLCEVFK (UniProt P15104)	0.0492	0.198
GNAI2_P04899_287_ITHSPLTICFPEYTGANKYDEAASYIQSK (UniProt P04899)	0.0178	-0.371
GNAI1_P63096_139_DSGVQACFNR (UniProt P63096)	0.065	-0.049
GLG1_Q92896_528_SGDPMILSCLMEHLYTEK (UniProt Q92896)	-0.0605	-0.00286
GMPPA_Q96IJ6_335_ESIVLHGATLQEHTCVLHSIVGWGSTVGR (UniProt Q96IJ6)	-0.149	0.0194
GOLGA4_Q13439_853_DVCTELDAHK (UniProt Q13439)	0.108	0.148
GMDS_O60547_92_LHYGDLTDSTCLVK (UniProt O60547)	0.0911	0.16
GNAI2_P04899_287_ITHSPLTICFPEYTGANK (UniProt P04899)	0.0813	0.0927
GMPPA_Q96IJ6_154_TQSLNYGCIVENPQTHEVLHYVEK (UniProt Q96IJ6)	0.0262	0.00148
GOLGA3_Q08378_769_LGELQGEAASREDTICLLQNEK (UniProt Q08378)	-0.084	-0.193

Target	probe-labelled cysteine peptide fold change (10 µM)	probe-labelled cysteine peptide fold change (50 µM)
GNL1_P36915_410_LCDCPGLIFPSLLPR (UniProt P36915)	-0.0539	-0.2
GMPPA_Q96IJ6_389_LLPAITILGCR (UniProt Q96IJ6)	0.222	-0.155
GPT2_Q8TD30_281_CIEDVIHFAWEEK (UniProt Q8TD30)	-0.103	-0.0683
GNAI2_P04899_140_RLWADHGVQACFGR (UniProt P04899)	-0.129	-0.253
GNB2_P62879_149_ELPGHTGYLSCCR (UniProt P62879)	-0.118	-0.265
GLB1_P16278_393_TVGAALDILCPSGPIK (UniProt P16278)	0.0498	0.0401
GPHN_Q9NQX3_676_CILTWHHQEPLPWAQSTGNQMSSR (UniProt Q9NQX3)	0.177	-0.06
GMEB2_Q9UKD1_323_DLAALEQQCDEHR (UniProt Q9UKD1)	0.0795	-0.191
GLS_O94925_266_FSPDLWGVSVCTVDGQR (UniProt O94925)	0.016	0.199
GNB4_Q9HAV0_25_ACNDATLVQITSNMDSVGR (UniProt Q9HAV0)	0.165	0.277
GNE_Q9Y223_296_HVPFDQFIQLVAHAGCMIGNSSCGVR (UniProt Q9Y223)	-0.0525	0.0652
GOT1_P17174_46_TDDCHPWVLPVVK (UniProt P17174)	-0.00519	-0.062
GPC4_O75487_341_VFQGCGPPKPLPAGR (UniProt O75487)	-0.353	-0.584
GLG1_Q92896_659_TETGQELECLQDHLDDLVVECR (UniProt Q92896)	-0.38	-0.0245
GNE_Q9Y223_183_ILLAGCPSYDK (UniProt Q9Y223)	0.0586	-0.166
GNAI2_P04899_112_QLFALSCTAEEQGVLPDDLSGVIRR (UniProt P04899)	-0.166	-0.29
GNPNAT1_Q96EK6_128_GRVEDVVVSDECR (UniProt Q96EK6)	-0.133	0.0486
GOPC_Q9HD26_327_CGGLHVGDAILAVNGVNLR (UniProt Q9HD26)	0.157	0.205
GLS_O94925_518_GIHFCHDLVSLCNFHNYDNLR (UniProt O94925)	-0.0806	-0.0918
GLOD4_Q9HC38_171_SLNYWCNLLGMK (UniProt Q9HC38)	0.0955	0.12
GPD1L_Q8N335_216_NIVAVGAGFCDGLR (UniProt Q8N335)	-0.0284	0.115

Target	probe-labelled cysteine peptide fold change (10 µM)	probe-labelled cysteine peptide fold change (50 µM)
GNL1_P36915_365_DGVVTIGCVGFPNVGK (UniProt P36915)	0.0739	0.161
GPKOW_Q92917_394_MIIEDVLSPDTCVCR (UniProt Q92917)	-0.0728	-0.0778
GOLGA4_Q13439_1253_ISHCQHR (UniProt Q13439)	-0.0373	0.0512
GNA15_P30679_345_LFSHYTCATDTQNIR (UniProt P30679)	0.0165	0.0256
GNPDA2_Q8TDQ7_239_TIFVCDEDATLELR (UniProt Q8TDQ7)	0.133	0.278
GMPS_P49915_213_NFLYDIAGCSGTFTVQNR (UniProt P49915)	0.0686	0.115
GPATCH1_Q9BRR8_534_CLDPSMTEWER (UniProt Q9BRR8)	0.256	0.0388
GOLPH3_Q9H4A6_84_DREGYTSFWNDCISSGLR (UniProt Q9H4A6)	0.0608	-0.0174
GMIP_Q9P107_895_LCEETPITSVPR (UniProt Q9P107)	-0.27	-0.341
GNAQ_P50148_9_TLESIMACCLSEEAK (UniProt P50148)	-0.191	-0.191
GPD1L_Q8N335_9_VCIVGSGNWGSAVAK (UniProt Q8N335)	-0.117	0.112
GOT2_P00505_212_IPEQSVLLLHACAHNPTGVDPRPEQWK (UniProt P00505)	0.243	0.484
GOT2_P00505_382_KEGSTHNWQHITDQIGMFCFTGLKPEQVER (UniProt P00505)	0.106	0.0175
GOLGA4_Q13439_1085_ILLFGCEK (UniProt Q13439)	-0.11	0.095
GLMP_Q8WWB7_300_ESALPCQASPLHPALAYSLPQSPIVR (UniProt Q8WWB7)	0.0408	0.106
GPATCH11_Q8N954_95_NALGCENK (UniProt Q8N954)	-0.145	-0.567
GMPPA_Q96IJ6_335_LRESIVLHGATLQEHTCVLHSIVGWGSTVGR (UniProt Q96IJ6)	0.102	-0.132
GPATCH8_Q9UKJ3_795_HKGELPPSSCQR (UniProt Q9UKJ3)	0.176	-0.284
GLRX_P35754_79_DCIGGCSDLVSLQQSGELLTR (UniProt P35754)	-0.303	-0.101
GPBP1L1_Q9HC44_365_ENGEEGCHQNGLALPVVEEGEVLSHSLEAEHR (UniProt Q9HC44)	-0.536	0.0923
GMPS_P49915_137_EDGVFNISVDNTCSLFR (UniProt P49915)	0.0778	0.487
